# The list shows a part of the results.
# What was measured:
# Test in all cases: glycan array binding signal (z-score within array); higher = stronger binding
# Conditions in all cases: glycan notation: IUPAC condensed, linker removed
# [1] = target: Gal(a1-3)Gal(b1-4)GlcNAc(b1-2)Man(a1-3)[Gal(a1-3)Gal(b1-4)GlcNAc(b1-2)Man(a1-6)]Man(b1-4)GlcNAc(b1-4)GlcNAc
# Summary of the method: (§1)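 The binding signal is a Z-score computed within each array and averaged over linkers. Arrays of the same protein sequence at different concentrations or buffers were also averaged together. Data originate from 3228 arrays in the Consortium for Functional Glycomics database, kept only where the protein sequence was available.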
# [2] = target: Gal(a1-3)Gal(b1-4)GlcNAc(b1-3)GalNAc
# Summary of the method: as §1
# [3] = target: Gal(a1-3)Gal(b1-4)GlcNAc(b1-6)GalNAc
# Summary of the method: as §1
# [4] = target: Gal(a1-3)Gal(b1-4)[Fuc(a1-3)]GlcNAc
# Summary of the method: as §1
# [5] = target: Gal(a1-3)Gal(b1-4)[Fuc(a1-3)]GlcNAc(b1-2)Man(a1-3)[Gal(a1-3)Gal(b1-4)[Fuc(a1-3)]GlcNAc(b1-2)Man(a1-6)]Man(b1-4)GlcNAc(b1-4)GlcNAc
# Summary of the method: as §1
# Gal(a1-3)GalNAc = target: Gal(a1-3)GalNAc
# Summary of the method: as §1
# [6] = target: Gal(a1-3)[Gal(a1-4)]Gal(b1-4)GlcNAc
# Summary of the method: as §1
# [7] = target: Gal(a1-4)Gal(b1-3)GlcNAc(b1-2)Man(a1-3)[Gal(a1-4)Gal(b1-3)GlcNAc(b1-2)Man(a1-6)]Man(b1-4)GlcNAc(b1-4)GlcNAc
# Summary of the method: as §1
# Gal(a1-4)Gal(b1-4)Glc = target: Gal(a1-4)Gal(b1-4)Glc
# Summary of the method: as §1
# Gal(a1-4)Gal(b1-4)GlcNAc = target: Gal(a1-4)Gal(b1-4)GlcNAc
# Summary of the method: as §1
# [8] = target: Gal(a1-4)Gal(b1-4)GlcNAc(b1-2)Man(a1-3)[Gal(a1-4)Gal(b1-4)GlcNAc(b1-2)Man(a1-6)]Man(b1-4)GlcNAc(b1-4)GlcNAc
# Summary of the method: as §1
# [9] = target: Gal(a1-4)Gal(b1-4)GlcNAc(b1-3)Gal(b1-4)Glc
# Summary of the method: as §1
# Gal(a1-4)GlcNAc = target: Gal(a1-4)GlcNAc
# Summary of the method: as §1
# Gal(a1-6)Glc = target: Gal(a1-6)Glc
# Summary of the method: as §1
# Gal(b1-2)Gal = target: Gal(b1-2)Gal
# Summary of the method: as §1
# Gal(b1-3)Gal = target: Gal(b1-3)Gal
# Summary of the method: as §1
# Gal(b1-3)Gal(b1-4)GlcNAc = target: Gal(b1-3)Gal(b1-4)GlcNAc
# Summary of the method: as §1
# Gal(b1-3)GalNAc = target: Gal(b1-3)GalNAc
# Summary of the method: as §1
# [10] = target: Gal(b1-3)GalNAc(a1-3)[Fuc(a1-2)]Gal(b1-4)Glc
# Summary of the method: as §1
# [11] = target: Gal(b1-3)GalNAc(a1-3)[Fuc(a1-2)]Gal(b1-4)GlcNAc
# Summary of the method: as §1
# Gal(b1-3)GalNAc(b1-3)Gal = target: Gal(b1-3)GalNAc(b1-3)Gal
# Summary of the method: as §1
# [12] = target: Gal(b1-3)GalNAc(b1-3)Gal(a1-4)Gal(b1-4)Glc
# Summary of the method: as §1
# [13] = target: Gal(b1-3)GalNAc(b1-4)Gal(b1-4)Glc
# Summary of the method: as §1
# [14] = target: Gal(b1-3)GalNAc(b1-4)[Neu5Ac(a2-3)]Gal(b1-4)Glc
# Summary of the method: as §1
# Gal(b1-3)GlcNAc = target: Gal(b1-3)GlcNAc
# Summary of the method: as §1
# [15] = target: Gal(b1-3)GlcNAc(a1-3)Gal(b1-4)GlcNAc
# Summary of the method: as §1
# [16] = target: Gal(b1-3)GlcNAc(a1-6)Gal(b1-4)GlcNAc
# Summary of the method: as §1
# Gal(b1-3)GlcNAc(b1-2)Man = target: Gal(b1-3)GlcNAc(b1-2)Man
# Summary of the method: as §1
# [17] = target: Gal(b1-3)GlcNAc(b1-2)Man(a1-3)[Gal(b1-3)GlcNAc(b1-2)Man(a1-6)]Man(b1-4)GlcNAc(b1-4)GlcNAc
# Summary of the method: as §1
# [18] = target: Gal(b1-3)GlcNAc(b1-2)Man(a1-3)[Gal(b1-3)GlcNAc(b1-2)Man(a1-6)]Man(b1-4)GlcNAc(b1-4)[Fuc(a1-6)]GlcNAc
# Summary of the method: as §1
binder,measurement,setting,value
Blon0732mut (Bifidobacterium longum) (protein) MPTSEHKADDATRHLTLIPAPVTLEYTHGTALIGPLVTIEDADQSWETLPIEQLSDELRHRYGVTVLRRRTHGTVISLGLDSRLAHDEYTLDVSESEGIRVRGGGESGLRYGLQTLRQIIGQTSRAIPCLHIQDKPAFAVRAYSLDVTRGRVPTMEFLTWFVDQLALYKYNQFQLYVEHAFAFVELSEAWRGTDPLTAADITYLDEYCARRGIELVPSLATFGHMYMNLRTREHRGLGEFPEDADRPFSFIERMEHHTLNAADPKAHDFASRLIEEYAPLFRSKSFNIGGNETFDLGRGRSAQDAPEAGRDELYAGFVRDLCETLARHGRQPMLWADIALESPRTMDLLPGDITMLNWMYEPQIDESKIQTIATQGRRQFVCPAVRAWSRFFPDYAGAWLNTYHMALAGTKYDAEGMVVTDWGDYGHVNDPRLSVPGLCYGAQNAWNPIEIDAHEMNRRISALVYGDESGRIMDCLARIDSDGVSFPWDLAVQVLELEYGSGTGALNMDVAACMERSSGGKLTLDRTLGCDDARRRMLQWNRERIERRRDCDQVLRDCGDAFAGLDKGGLTAEFLSVMLDGQRLFNELGEELLALADGKDVGSGANRLAADLELWFERYRAQWLSVGRHAELARIAHVVWSLADILRRGAL,glycan array binding signal (z-score),[1],0.086
same,glycan array binding signal (z-score),[2],-0.353
same,glycan array binding signal (z-score),[3],-0.671
same,glycan array binding signal (z-score),[4],0.387
same,glycan array binding signal (z-score),[5],0.593
same,glycan array binding signal (z-score),Gal(a1-3)GalNAc,1.03
same,glycan array binding signal (z-score),[6],5.9
same,glycan array binding signal (z-score),[7],-0.39
same,glycan array binding signal (z-score),Gal(a1-4)Gal(b1-4)Glc,2.6
same,glycan array binding signal (z-score),Gal(a1-4)Gal(b1-4)GlcNAc,0.631
same,glycan array binding signal (z-score),[8],0.138
same,glycan array binding signal (z-score),[9],-0.423
same,glycan array binding signal (z-score),Gal(a1-4)GlcNAc,-0.94
same,glycan array binding signal (z-score),Gal(a1-6)Glc,0.677
same,glycan array binding signal (z-score),Gal(b1-2)Gal,-0.592
same,glycan array binding signal (z-score),Gal(b1-3)Gal,-0.514
same,glycan array binding signal (z-score),Gal(b1-3)Gal(b1-4)GlcNAc,1.7
same,glycan array binding signal (z-score),Gal(b1-3)GalNAc,0.05
same,glycan array binding signal (z-score),[10],-0.585
same,glycan array binding signal (z-score),[11],0.141
same,glycan array binding signal (z-score),Gal(b1-3)GalNAc(b1-3)Gal,-0.712
same,glycan array binding signal (z-score),[12],1.32
same,glycan array binding signal (z-score),[13],1.73
same,glycan array binding signal (z-score),[14],-0.773
same,glycan array binding signal (z-score),Gal(b1-3)GlcNAc,0.544
same,glycan array binding signal (z-score),[15],-0.24
same,glycan array binding signal (z-score),[16],-0.007
same,glycan array binding signal (z-score),Gal(b1-3)GlcNAc(b1-2)Man,-0.204
same,glycan array binding signal (z-score),[17],0.197
same,glycan array binding signal (z-score),[18],-0.917

# 2 entries from above in another layout.
binder	measurement	setting	value
Blon0732mut (Bifidobacterium longum) (protein) MPTSEHKADDATRHLTLIPAPVTLEYTHGTALIGPLVTIEDADQSWETLPIEQLSDELRHRYGVTVLRRRTHGTVISLGLDSRLAHDEYTLDVSESEGIRVRGGGESGLRYGLQTLRQIIGQTSRAIPCLHIQDKPAFAVRAYSLDVTRGRVPTMEFLTWFVDQLALYKYNQFQLYVEHAFAFVELSEAWRGTDPLTAADITYLDEYCARRGIELVPSLATFGHMYMNLRTREHRGLGEFPEDADRPFSFIERMEHHTLNAADPKAHDFASRLIEEYAPLFRSKSFNIGGNETFDLGRGRSAQDAPEAGRDELYAGFVRDLCETLARHGRQPMLWADIALESPRTMDLLPGDITMLNWMYEPQIDESKIQTIATQGRRQFVCPAVRAWSRFFPDYAGAWLNTYHMALAGTKYDAEGMVVTDWGDYGHVNDPRLSVPGLCYGAQNAWNPIEIDAHEMNRRISALVYGDESGRIMDCLARIDSDGVSFPWDLAVQVLELEYGSGTGALNMDVAACMERSSGGKLTLDRTLGCDDARRRMLQWNRERIERRRDCDQVLRDCGDAFAGLDKGGLTAEFLSVMLDGQRLFNELGEELLALADGKDVGSGANRLAADLELWFERYRAQWLSVGRHAELARIAHVVWSLADILRRGAL	glycan array binding signal (z-score)	Gal(b1-3)GalNAc	0.05
same	glycan array binding signal (z-score)	[10]	-0.585

# — the supplement of paper PMC8728848
